# Results published in patent publication US20210139453A1, “(HETERO)ARYL SULFONAMIDE COMPOUND AND FORMULATION FOR CONTROLLING HARMFUL ORGANISMS” (Nippon Soda Co., Ltd., priority 2018, published 2021).
# Some results were stated once for a whole list of compounds, not compound by compound.
# What was measured:
# [1] = tested on: Mythimna separata; assay: Efficacy test against Mythimna separata (artificial feed mixed with emulsion); format: in vivo; details: second-instar larvae; 1 μl of 5% emulsion (I) in 0.8 g artificial feed; 25° C.; 5th day
# Description: Five parts of the (hetero)aryl sulfonamide compound of the present invention, 93.6 parts of dimethylformamide and 1.4 parts of a polyoxyethylene alkyl aryl ether were mixed together and dissolved to obtain an emulsion (I) containing 5% of the active ingredient.
# For the control, 93.6 parts of dimethylformamide and 1.4 parts of a polyoxyethylene alkyl aryl ether were mixed together and dissolved to obtain an emulsion (II).
# Insect mortality rate(%)=(number of dead insects/number of test insects)×100 Nematode mortality rate(%)=(number of dead nematodes/number of test nematodes)×100
# First, 0.8 g of a commercially-available artificial feed (Insecta LFS, manufactured by Nosan Corporation) and 1 μl of the emulsion (I) were mixed well, and thereby, a test feed was obtained. Subsequently, 0.2 g of the test feed was placed in each of the treatment areas of a plastic test container (volume: 1.4 ml). Subsequently, two second-instar larvae of Mythimna separata were inoculated into each treatment area, and a plastic lid was placed on the test container to prevent the larvae from escaping. The closed container was placed in a thermostatic chamber at 25° C. On the 5th day therefrom, the insect mortality rate and the amount of feed consumed were checked. The test was repeated.
# In addition, for a control area, the insect mortality rate and the amount of feed consumed were checked in the same manner as that described in Test Example 1, with the exception of replacing the emulsion (I) with the emulsion (II).
# [2] = tested on: Caenorhabditis elegans; assay: Efficacy test against Caenorhabditis elegans (in vitro test); details: 1.0 μL of 10,000 pm DMSO solution per 200 μL well; mixed instars; 2 days at 25° C.
# [3] = tested on: Meloidogyne incognita; assay: Efficacy test against Meloidogyne incognita (in vitro test); details: 1.0 μL of 10,000 pm DMSO solution per 200 μL well; second-instar larvae (L2); 2 days at 15° C.
# [4] = tested on: Heterodera glycines; assay: Efficacy test against Heterodera glycines (in vitro test); details: 1.0 μL of 10,000 pm DMSO solution per 200 μL well; second-instar larvae (L2); 3 days at 25° C.
# [5] = tested on: Meloidogyne incognita; assay: Efficacy test against Meloidogyne incognita (club root formation suppression test on cucumber); format: in vivo; details: 125 ppm, 1 ml irrigated on 7 g medium with cucumber seeds; 200 eggs; 25° C.; after 14 days
# [6] = tested on: Spodoptera litura; assay: Efficacy test against Spodoptera litura (cabbage leaf dip); format: in vivo; details: 125 ppm; cabbage leaves soaked 30 seconds; second-instar larvae; 25° C.; 6 days after release
# [7] = tested on: Plutella xylostella; assay: Efficacy test against Plutella xylostella (cabbage leaf dip); format: in vivo; details: 125 ppm; cabbage leaves soaked 30 seconds; second-instar larvae; 25° C.; 3 days after release
smiles,measurement,setting,value
O=S(=O)(Nc1cc(C(F)(F)F)ccc1-c1nc2cc(Cl)c(Cl)cc2[nH]1)C(F)(F)F [Compound 2-3],"amount of feed consumed, relative to the amount of feed consumed in the control area",[1],≤ 10%
same,nematode mortality rate against Caenorhabditis elegans,[2],≥ 80%
same,nematode mortality rate against Meloidogyne incognita,[3],≥ 80%
same,nematode mortality rate against Heterodera glycines,[4],≥ 80%
same,club root formation suppression ratio against Meloidogyne incognita,[5],≥ 80%
O=S(=O)(N(c1cc(C(F)(F)F)ccc1-c1nc2cc(C(F)(F)F)ccc2[nH]1)S(=O)(=O)C(F)(F)F)C(F)(F)F [Compound 2-5],"amount of feed consumed, relative to the amount of feed consumed in the control area",[1],≤ 10%
same,mortality rate against Spodoptera litura,[6],≥ 80%
same,mortality rate against Plutella xylostella,[7],≥ 80%
O=S(=O)(Nc1cc(C(F)(F)F)ccc1-c1nc2cc(C(F)(F)F)ccc2[nH]1)C(F)(F)F [Compound 2-6],"amount of feed consumed, relative to the amount of feed consumed in the control area",[1],≤ 10%
same,mortality rate against Spodoptera litura,[6],≥ 80%
same,mortality rate against Plutella xylostella,[7],≥ 80%
same,nematode mortality rate against Caenorhabditis elegans,[2],≥ 80%
O=S(=O)(Nc1cc(C(F)(F)F)ccc1-c1nc2cc(F)c(F)cc2[nH]1)C(F)(F)F [Compound 2-8],"amount of feed consumed, relative to the amount of feed consumed in the control area",[1],≤ 10%
same,mortality rate against Spodoptera litura,[6],≥ 80%
same,mortality rate against Plutella xylostella,[7],≥ 80%
same,nematode mortality rate against Caenorhabditis elegans,[2],≥ 80%
same,nematode mortality rate against Meloidogyne incognita,[3],≥ 80%
same,club root formation suppression ratio against Meloidogyne incognita,[5],≥ 80%
CCS(=O)(=O)Nc1cc(C(F)(F)F)ccc1-c1nc2cc(F)c(F)cc2[nH]1 [Compound 2-14],"amount of feed consumed, relative to the amount of feed consumed in the control area",[1],≤ 10%
same,mortality rate against Plutella xylostella,[7],≥ 80%
CCS(=O)(=O)Nc1cc(C(F)(F)F)ccc1-n1cnc(-c2ccc(Br)cc2)n1 [Compound 2-17],"amount of feed consumed, relative to the amount of feed consumed in the control area",[1],≤ 10%
same,mortality rate against Spodoptera litura,[6],≥ 80%
same,mortality rate against Plutella xylostella,[7],≥ 80%
O=S(=O)(Nc1cc(C(F)(F)F)ccc1-n1ccc(-c2ccc(Cl)cc2)n1)C(F)(F)F [Compound 2-18],"amount of feed consumed, relative to the amount of feed consumed in the control area",[1],≤ 10%
same,mortality rate against Spodoptera litura,[6],≥ 80%
same,mortality rate against Plutella xylostella,[7],≥ 80%
same,nematode mortality rate against Meloidogyne incognita,[3],≥ 80%
same,club root formation suppression ratio against Meloidogyne incognita,[5],≥ 80%
O=S(=O)(Nc1cc(C(F)(F)F)ccc1-c1nc(-c2ccc(Cl)cc2)no1)C(F)(F)F [Compound 2-25],"amount of feed consumed, relative to the amount of feed consumed in the control area",[1],≤ 10%
same,nematode mortality rate against Meloidogyne incognita,[3],≥ 80%
same,nematode mortality rate against Heterodera glycines,[4],≥ 80%
same,club root formation suppression ratio against Meloidogyne incognita,[5],≥ 80%
O=S(=O)(CC(F)(F)F)Nc1cc(C(F)(F)F)cnc1-n1ccc(C(F)(F)F)n1 [Compound 3-8],"amount of feed consumed, relative to the amount of feed consumed in the control area",[1],≤ 10%
same,nematode mortality rate against Meloidogyne incognita,[3],≥ 80%
same,nematode mortality rate against Heterodera glycines,[4],≥ 80%
same,club root formation suppression ratio against Meloidogyne incognita,[5],≥ 80%
